In PubChem BioAssay AID1347075 (National Center for Advancing Translational Sciences (NCATS), 2019):
“And” between values parts separate entries of the source, which are not always exact repeats. Identical values can stand only once. Hit rate of the full screen: of about 400,000 compounds, about 5,500 (1.4%) were called active. Inconclusive results, whose numbers are uncertain, are shown with a selection of clear calls. Calls come from the whole dose curve; as a rule, active = well fitted cell-killing curve with a large enough effect; inconclusive = small, poorly fitted or top-dose-only effect, or effect the other way; inactive = flat fitted curve, though single readings scatter. Potencies beside an inconclusive call are fits to weak or partial responses and may not hold up.

Test: qHTS assay for MDR1-selective chemotherapeutics: Primary screen using the parental adenocarcinoma cell KB-3-1; note: nearly all actives have a fitted effect of over 60% in size
Settings: KB-3-1 viability, CellTiter-Glo ATP luminescence, 72 h; activity change, negative = cytotoxic: at 46.1 µM (top of the series)
Outline: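 Multi-concentration cytotoxicity screen in KB-3-1 cells grown in DMEM lacking phenol red with 10% FBS. After 72 h at 37 °C with compound, ATP-dependent luminescence was recorded.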
% is set by controls: 0 for no effect and ±100 for the full control effect; potency is the fitted concentration of half-maximal effect.

Compound	Potency	activity change, negative = cytotoxic
O=S(=O)(c1ccc(NC(=S)N2CCN(c3ccc(O)cc3)CC2)cc1)N1CCOCC1	inconclusive: 29.1 µM [cytotoxic, single point]	–
CN(C(=O)C1CCCN(c2ncnc3c2nc2n3CCCCC2)C1)c1ccccc1F (configuration not stated)	inconclusive: 29.1 µM [cytotoxic, single point]	–
CCN(CC)CC(C)CNC(=O)CN1C(=O)CSc2ccc(S(=O)(=O)N3CCOCC3)cc21 (configuration not stated)	inconclusive: 7.31 µM [rising, partial curve]	–
Fc1ccc(C2c3[nH]c4ccccc4c3CCN2CCCn2cccn2)cc1 (configuration not stated)	inconclusive: 29.1 µM [cytotoxic, single point]	–
Cc1ccc(S(=O)(=O)NC(C)C(=O)NC2CC2)cc1 (configuration not stated)	–	inactive: 9.24%
CCNC(=O)C(=O)Nc1ccc(OC)c(Cl)c1	–	inconclusive: 5.6%
O=C(CCN1CCN(C(c2ccccc2)c2ccccc2)CC1)N/N=C/c1ccc(O)cc1O	inconclusive: 29.1 µM [cytotoxic, single point]	–
O=C(c1cc(Br)ccc1Cl)N1CCN(c2ccc(N3CCOCC3)nn2)CC1	inconclusive: 23.1 µM [cytotoxic, single point]	–
CC(C)CNc1ncnc2c1ncn2[C@H]1CN(Cc2ccc(-c3ccccc3)cc2)C[C@@H](CO)O1	inconclusive: 29.1 µM [cytotoxic, single point]	–
COc1ccc(COc2ccccc2C(=O)NCc2ccccc2)cc1F	–	inactive: -7.6%
CCC(=O)N1CCc2cc(S(=O)(=O)NCCC(=O)N3CCN(c4cccc(OC)c4)CC3)ccc21	inconclusive: 23.1 µM [cytotoxic, partial curve, poor fit]	–
COc1cc2c(cc1OC)CN(C(=O)/C=C/c1ccccc1[N+](=O)[O-])CC2	inconclusive: 10.3 µM [cytotoxic, partial curve, poor fit]	–
COc1ccc(C(C(=O)NCC2CCCO2)N(C(=O)CNC(=O)c2ccco2)c2cc(C)ccc2C)cc1OC (configuration not stated)	–	inactive: -6.39%
CC(C)c1c(C(=O)N/N=C/c2ccc(C(F)(F)F)cc2)nnn1-c1nonc1N	inconclusive: 29.1 µM [cytotoxic, single point]	–
CC1CCc2c(sc3ncnc(SC(C)C(=O)NCC4CCCO4)c23)C1 (configuration not stated)	inconclusive: 18.4 µM [cytotoxic, single point]	–
CN(C)c1ccc2c3c(ccc(N(C)C)c13)C(=O)OC2	inconclusive: 0.0065 µM [rising, full curve]	–
Cc1ccc(NC(=O)C2C3CCC(O3)C2C(=O)O)c(Br)c1 (configuration not stated)	–	inactive: 9.81%
Cc1[nH]c2ccccc2c1C(=O)C(=O)N1c2ccccc2CC1C (configuration not stated)	inconclusive: 23.1 µM [cytotoxic, single point]	–
N#Cc1ccc(Oc2nc(C#N)cc(-c3ccccc3)n2)cc1	–	inconclusive: -35.7%
Cc1ccc(NC(=O)c2cc(S(=O)(=O)NCCC3=CCCCC3)ccc2F)cc1F	inconclusive: 18.4 µM [cytotoxic, single point] and active: 10.3 µM	–
CC1=NN(C(=O)c2ccc(Cl)cc2)C(O)(c2ccccc2)C1 (configuration not stated)	inconclusive: 14.6 µM [cytotoxic, single point]	–
Cc1ccc(NC(=O)CN(C)C(=O)c2cccc(S(=O)(=O)N3CCCC3)c2)cc1	inconclusive: 32.6 µM [cytotoxic, single point]	–
Cc1cc(Nc2nc3ccccc3nc2Cl)n(-c2ccccc2C)n1	–	inactive: -18.1%

Compound	Potency	activity change, negative = cytotoxic
O=C(c1cccn(Cc2ccc(Cl)c(Cl)c2)c1=O)N1CCOCC1	–	inconclusive: -35.3%
COC(=O)c1ccc(Oc2nc3ccccc3n3c(C)nnc23)cc1	inconclusive: 25.9 µM [rising, single point]	–
Cc1c(Cl)cccc1NC(=S)NCc1ccco1	inconclusive: 8.2 µM [cytotoxic, partial curve]	–
COc1ccc(C(C(=O)Nc2ccc3c(c2)OCCO3)n2c(=O)c(-c3ccco3)nc3ccccc32)cc1 (configuration not stated)	inconclusive: 23.1 µM [cytotoxic, single point]	–
O=C(c1ccccc1F)N1CCN(c2ccc([N+](=O)[O-])c(NCc3cccnc3)c2)CC1	–	inactive: 0.202%
COc1ccc(C(=O)c2cn[nH]c2-c2cc(Cl)ccc2O)cc1	inconclusive: 29.1 µM [cytotoxic, single point]	–
COc1ccc(C/C(=N\OC(C)=O)c2ccc(OC)cc2)cc1	–	inactive: 4.83%
Cc1ccc(C)c(OCC(=O)Nc2ccncc2)c1	inconclusive: 29.1 µM [cytotoxic, single point]	–
O=C(Nc1ccc(Cl)cn1)c1cccc(OCc2ccccc2)c1	inconclusive: 29.1 µM [cytotoxic, single point]	–
O=C(CSc1nccn1Cc1ccccc1)NCc1ccc(F)cc1	–	inactive: 4.47%
O=C1c2ccccc2C(=O)C12OC2c1ccc(Cl)cc1Cl (configuration not stated)	inconclusive: 25.9 µM [cytotoxic, single point]	–
Cc1ccc(/C=C/c2ccc(=O)n(Cc3ccccc3Cl)n2)cc1	inconclusive: 29.1 µM [cytotoxic, single point]	–
O=C(Nc1ccc(Cl)cc1)c1cccc(N2C(=O)C3C4CCC(C4)C3C2=O)c1 (configuration not stated)	inconclusive: 32.6 µM [cytotoxic, single point]	–
O=C(CCCCCCC(=O)Nc1ccccc1)NO	active: 8.2 µM	–
COc1ccc(NC(=O)/C=C/c2cccc(F)c2)cn1	inconclusive: 20.6 µM [cytotoxic, single point]	–
Cn1c(=O)c2cc(NC(=O)NCCc3cccs3)ccc2n1Cc1ccccc1	inconclusive: 29.1 µM [cytotoxic, single point]	–
COC(=O)c1sccc1-n1cc2c(c1-c1ccccc1)c(=O)n(C)c(=O)n2C	inconclusive: 29.1 µM [cytotoxic, single point]	–
Cc1cc(C(=O)CN2C(=O)NC(C)(c3cccc(Br)c3)C2=O)c(C)n1Cc1ccco1 (configuration not stated)	inconclusive: 32.6 µM [cytotoxic, single point]	–
Cc1cc(-c2n[nH]c(=S)n2/N=C/C(Br)=C/c2ccccc2)n[nH]1	active: 5.8 µM	–
CC(=O)N1CC2(CC(c3ccccc3F)=NO2)CN1c1ccc(Cl)cc1 (configuration not stated)	inconclusive: 20.6 µM [cytotoxic, single point]	–
CCOC(=O)C1CCCN(CC(O)COCc2ccccc2OC)C1 (configuration not stated)	–	inactive: 22.3%
c1ccc2nc(-c3nc4ccccc4[nH]3)ccc2c1	inconclusive: 16.4 µM [cytotoxic, single point]	–
CNc1ccc(C=O)cc1Cl	inconclusive: 29.1 µM [rising, single point]	–

Compound	Potency	activity change, negative = cytotoxic
CN(C)c1ccc(C(C(=O)NC2CCCCC2)N(Cc2ccco2)C(=O)c2snc(C(N)=O)c2N)cc1 (configuration not stated)	inconclusive: 23.1 µM [cytotoxic, single point]	–
O=C(CSc1nc2ccccc2c(=O)[nH]1)c1ccc(O)c(O)c1	inconclusive: 29.1 µM [cytotoxic, single point]	–
COc1ccc(/C=C2\CCc3ccccc3C2=O)cc1O	active: 3.66 µM	–
CC1CCN(S(=O)(=O)c2ccc3c(c2)oc(=O)n3CC(=O)NCc2ccc(F)cc2)CC1	inconclusive: 13 µM [cytotoxic, partial curve, poor fit]	–
COC(=O)c1sc(NC(=O)c2ccc(C)o2)nc1C	inconclusive: 23.1 µM [cytotoxic, single point]	–
COc1ccc(-c2csc(N(CCCN(C)C)C(=O)c3ccc(Br)cc3)n2)cc1	–	inactive: -26.6%
O=C(Nc1nnc(-c2ccc(F)cc2)o1)c1cc(Cl)sc1Cl	inconclusive: 18.4 µM [cytotoxic, single point]	–
CCCCC(=O)NC(c1ccc(OC)c(OC)c1)c1ccc2cccnc2c1O (configuration not stated)	active: 5.8 µM	–
N#CC1=C(N)Oc2c(ccc3cccnc23)C1c1cccnc1 (configuration not stated)	inconclusive: 3.26 µM [cytotoxic, full curve, poor fit]	–
Cc1ccc(-n2ncc3c(=O)n(-c4ccc(C)c(C)c4)c(-c4ccco4)nc32)cc1	inconclusive: 16.4 µM [cytotoxic, single point]	–
O=C(c1cccc([N+](=O)[O-])c1)N1CCN(c2cccc(Cl)c2)CC1	active: 18.4 µM	–
CCCCN(C)C(=O)c1cn(-c2cccc(OC)c2)c(=O)c2ccccc12	–	inactive: -3.49%
O=C(N/N=C/c1ccccc1C(=O)O)c1cc(-c2ccc3c4c(cccc24)CC3)n[nH]1	inconclusive: 16.4 µM [rising, partial curve]	–
CCC(=O)Nc1ccc2c(c1)ncn2-c1ccccc1	inconclusive: 29.1 µM [rising, single point]	–
O=S(=O)(/C(=C\c1ccc(C(F)(F)F)cc1)c1nc2ccccc2[nH]1)c1ccccc1	active: 2.59 µM	–
CCOC(=O)[C@H]1[C@H]2COc3cc(OC)ccc3[C@@H]2N2C(=O)c3c(C)cc(C)cc3NC(=O)[C@@]12C	–	inactive: -4.52%
COC(=O)C1=CN(Cc2ccc(OC)cc2)C=C(C(=O)OC)C1c1cccs1	inconclusive: 29.1 µM [rising, single point]	–
COc1ccc(C(C(=O)NC2CCCCC2)N(Cc2cccs2)C(=O)Cc2c[nH]c3ccccc23)cc1 (configuration not stated)	inconclusive: 29.1 µM [cytotoxic, single point]	–
Cc1ccc(NNC(=O)C(=O)N2CCCCC2)cc1	–	inactive: -8.37%
Cc1ccc(N=C2NC(=O)/C(=C/c3cn(C)c4ccccc34)S2)cc1C	inconclusive: 25.9 µM [cytotoxic, single point]	–
Cn1cc(C(=O)NCCc2ccccc2)c(=O)c2cc(S(=O)(=O)N3CCOCC3)ccc21	inconclusive: 5.8 µM [rising, full curve]	–
